Laboratory results from paper PMC6443784.
These are yes or no findings as the source states them, for the method shown. Binding seen in cells or lysates may run through a third protein. Some results given as binding are weak or reduced against the parent protein; the word gives no strength. For part of these data: Sequences can lack the tags named with a protein.

Sequences of proteins named here, by UniProt entry; tags and fusion partners are left off.
UniProt Q80TA9: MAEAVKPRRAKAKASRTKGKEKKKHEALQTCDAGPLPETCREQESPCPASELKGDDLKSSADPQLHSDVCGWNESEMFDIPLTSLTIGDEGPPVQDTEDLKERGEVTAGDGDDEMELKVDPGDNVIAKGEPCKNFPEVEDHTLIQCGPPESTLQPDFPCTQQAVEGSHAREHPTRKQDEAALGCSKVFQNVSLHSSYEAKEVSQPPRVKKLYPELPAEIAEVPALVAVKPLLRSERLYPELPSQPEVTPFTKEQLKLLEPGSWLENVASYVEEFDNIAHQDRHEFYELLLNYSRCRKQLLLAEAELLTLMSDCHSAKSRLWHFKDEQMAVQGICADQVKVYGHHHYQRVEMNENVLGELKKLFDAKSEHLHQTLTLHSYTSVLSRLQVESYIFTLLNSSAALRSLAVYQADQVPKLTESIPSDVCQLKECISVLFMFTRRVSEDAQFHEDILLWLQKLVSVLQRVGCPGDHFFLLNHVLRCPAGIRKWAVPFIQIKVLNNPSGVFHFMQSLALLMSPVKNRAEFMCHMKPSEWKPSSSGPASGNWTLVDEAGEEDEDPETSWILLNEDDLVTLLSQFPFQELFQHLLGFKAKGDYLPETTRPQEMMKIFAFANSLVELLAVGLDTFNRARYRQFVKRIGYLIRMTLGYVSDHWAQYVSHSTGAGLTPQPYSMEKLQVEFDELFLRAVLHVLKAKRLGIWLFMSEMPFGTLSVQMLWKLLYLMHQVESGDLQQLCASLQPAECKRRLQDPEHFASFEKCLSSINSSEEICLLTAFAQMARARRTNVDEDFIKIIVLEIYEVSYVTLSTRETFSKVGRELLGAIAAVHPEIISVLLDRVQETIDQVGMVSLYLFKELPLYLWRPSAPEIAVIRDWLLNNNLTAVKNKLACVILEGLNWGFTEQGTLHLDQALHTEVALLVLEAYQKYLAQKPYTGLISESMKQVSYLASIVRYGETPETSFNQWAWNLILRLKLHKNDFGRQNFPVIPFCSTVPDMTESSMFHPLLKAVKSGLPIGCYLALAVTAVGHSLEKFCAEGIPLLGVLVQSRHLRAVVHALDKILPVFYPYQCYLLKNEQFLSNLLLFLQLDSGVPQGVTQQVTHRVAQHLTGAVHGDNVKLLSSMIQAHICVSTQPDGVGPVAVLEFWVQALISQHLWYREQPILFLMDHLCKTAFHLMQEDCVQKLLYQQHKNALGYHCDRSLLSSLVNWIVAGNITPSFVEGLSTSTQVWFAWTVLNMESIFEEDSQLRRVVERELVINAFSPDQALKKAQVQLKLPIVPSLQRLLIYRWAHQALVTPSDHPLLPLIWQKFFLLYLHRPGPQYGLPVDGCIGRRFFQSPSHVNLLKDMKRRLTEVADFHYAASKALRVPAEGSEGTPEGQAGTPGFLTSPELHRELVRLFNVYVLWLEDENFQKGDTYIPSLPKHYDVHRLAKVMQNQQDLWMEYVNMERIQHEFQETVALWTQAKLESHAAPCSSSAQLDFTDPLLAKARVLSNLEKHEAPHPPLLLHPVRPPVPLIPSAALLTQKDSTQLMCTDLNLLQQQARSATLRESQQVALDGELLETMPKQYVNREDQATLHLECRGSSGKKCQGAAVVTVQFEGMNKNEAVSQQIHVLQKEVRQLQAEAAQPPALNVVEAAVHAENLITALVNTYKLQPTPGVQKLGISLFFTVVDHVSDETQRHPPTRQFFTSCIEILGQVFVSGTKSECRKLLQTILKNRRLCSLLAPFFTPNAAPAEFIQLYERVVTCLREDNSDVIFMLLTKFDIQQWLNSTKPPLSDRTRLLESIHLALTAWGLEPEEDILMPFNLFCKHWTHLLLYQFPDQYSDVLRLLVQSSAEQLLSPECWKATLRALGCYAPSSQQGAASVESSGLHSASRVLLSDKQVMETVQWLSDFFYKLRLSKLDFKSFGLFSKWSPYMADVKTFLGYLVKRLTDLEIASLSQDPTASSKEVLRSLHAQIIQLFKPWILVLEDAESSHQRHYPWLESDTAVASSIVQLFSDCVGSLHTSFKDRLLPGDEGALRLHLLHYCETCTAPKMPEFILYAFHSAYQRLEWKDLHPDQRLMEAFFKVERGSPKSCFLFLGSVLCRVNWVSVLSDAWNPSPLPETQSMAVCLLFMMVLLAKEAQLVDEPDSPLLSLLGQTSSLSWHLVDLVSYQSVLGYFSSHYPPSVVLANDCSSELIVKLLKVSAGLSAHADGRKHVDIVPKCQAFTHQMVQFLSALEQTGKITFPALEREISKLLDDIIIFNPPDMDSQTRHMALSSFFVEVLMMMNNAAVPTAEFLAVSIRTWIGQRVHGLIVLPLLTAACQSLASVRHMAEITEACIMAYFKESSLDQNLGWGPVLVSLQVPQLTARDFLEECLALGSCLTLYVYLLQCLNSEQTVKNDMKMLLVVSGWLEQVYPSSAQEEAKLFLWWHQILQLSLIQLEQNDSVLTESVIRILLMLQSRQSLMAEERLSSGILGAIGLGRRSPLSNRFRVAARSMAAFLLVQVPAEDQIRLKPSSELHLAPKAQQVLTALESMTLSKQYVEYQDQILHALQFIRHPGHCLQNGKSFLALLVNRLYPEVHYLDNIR

Assays:
[1] = target: T1, USP8 (endogenous, mouse ESCs) (mouse (endogenous in mouse ESCs)) (UniProt Q80U87); experiment: co-IP; endogenous proteins in ESCs, immunoprecipitation with anti-USP8 antibody, blot for EPG5
T1 sequence: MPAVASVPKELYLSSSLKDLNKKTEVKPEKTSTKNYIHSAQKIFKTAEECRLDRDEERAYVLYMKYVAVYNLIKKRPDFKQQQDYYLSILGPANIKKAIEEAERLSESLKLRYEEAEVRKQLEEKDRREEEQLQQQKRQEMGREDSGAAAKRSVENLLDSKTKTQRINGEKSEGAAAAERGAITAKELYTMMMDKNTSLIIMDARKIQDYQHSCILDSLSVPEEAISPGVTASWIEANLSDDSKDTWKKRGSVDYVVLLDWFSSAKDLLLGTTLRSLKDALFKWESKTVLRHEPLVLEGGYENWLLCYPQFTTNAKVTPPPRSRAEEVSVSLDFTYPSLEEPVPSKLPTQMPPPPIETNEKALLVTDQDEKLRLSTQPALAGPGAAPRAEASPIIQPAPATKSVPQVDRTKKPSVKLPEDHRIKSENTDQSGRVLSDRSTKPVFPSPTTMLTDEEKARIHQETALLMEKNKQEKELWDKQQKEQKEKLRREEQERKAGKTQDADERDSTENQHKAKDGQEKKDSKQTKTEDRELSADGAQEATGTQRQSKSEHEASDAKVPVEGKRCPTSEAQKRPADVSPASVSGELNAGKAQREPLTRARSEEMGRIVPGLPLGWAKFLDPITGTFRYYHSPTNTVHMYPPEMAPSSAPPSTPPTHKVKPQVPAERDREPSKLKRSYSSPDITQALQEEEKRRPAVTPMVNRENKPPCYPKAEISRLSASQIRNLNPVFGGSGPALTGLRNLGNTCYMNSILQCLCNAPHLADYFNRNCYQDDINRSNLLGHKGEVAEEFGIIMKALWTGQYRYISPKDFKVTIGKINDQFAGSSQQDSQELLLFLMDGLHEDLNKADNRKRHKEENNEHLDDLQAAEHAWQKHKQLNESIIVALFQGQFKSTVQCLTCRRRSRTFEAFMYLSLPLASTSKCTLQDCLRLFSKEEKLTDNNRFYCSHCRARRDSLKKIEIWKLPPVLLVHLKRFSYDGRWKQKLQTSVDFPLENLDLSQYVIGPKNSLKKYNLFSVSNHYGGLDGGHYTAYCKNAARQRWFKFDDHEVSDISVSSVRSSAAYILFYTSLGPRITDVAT

Flag-tagged EPG5 (mouse) = Flag-tagged EPG5 (mouse) (UniProt Q80TA9); experiment: co-IP; HEK293T cells transfected with Flag-Epg5 and/or HA-Usp8; lysis buffer 50 mM Tris-HCl pH 7.4, 150 mM NaCl, 1% NP-40, 0.5% sodium deoxycholate, 0.1% SDS; A/G agarose beads overnight at 4 °C
[2] = target: HA-EPG5 (stable ESC line) (mouse) (UniProt Q80TA9); experiment: co-IP; stable ESC lines harboring HA-EPG5 and/or Myc-USP8 vectors; lysates

## EPG5 (endogenous, mouse ESCs) (from UniProt Q80TA9 1-2572)
[1]
  binding: binds

B1: HA-tagged USP8 (enzyme, UniProt Q80U87 1-1080)
chain: T1 sequence
Flag-tagged EPG5 (mouse)
  binding: binds

B2: Myc-USP8 (stable ESC line) (enzyme, UniProt Q80U87 1-1080)
chain: T1 sequence
[2]
  binding: binds
